In patent publication US6248865 (dated 2001):
[ ]: non-standard residue; d: D form. The star is where a group is joined. NMeV = CN[C@H](C(=O)O)C(C)C; Cbz = O=C(OCc1ccccc1)*

Assay: general procedure: solution-phase peptide synthesis; pivaloyl chloride / triethylamine (mixed anhydride)
Settings: HCl; for step yield: of theory

Q: With Cbz-VV[NMeV]P-OMe as the substance, how does the “purity (crude or final not stated)” value (coupling step, HPLC percentage area) read?
A: 98.5%

Q: What about the step yield (coupling step) of the same substance?
A: 79% of theory

Q: For Me2 Val-Val-MeVal-Pro-OMe x HCl, which “purity (crude or final not stated)” value (late stage modification step, HPLC percentage area) is on record?
A: 99.9%

Q: And the step yield (late stage modification step)?
A: 92.3% of theory

Q: What about the “final HPLC purity” value (whole synthesis, HPLC percentage area) of the same substance?
A: 99.4%
